No constants are given. Whether binding was seen depends on the method and setting. In cells and extracts the contact can be indirect. Some binding calls cover weakened binding; strength is not graded here. Sequences can lack the tags named with a protein.
Target: T1, Flag-tagged NDRG2 (N-myc downstream-regulated gene 2), transfected in 293T cells (UniProt Q9UN36)
T1 sequence: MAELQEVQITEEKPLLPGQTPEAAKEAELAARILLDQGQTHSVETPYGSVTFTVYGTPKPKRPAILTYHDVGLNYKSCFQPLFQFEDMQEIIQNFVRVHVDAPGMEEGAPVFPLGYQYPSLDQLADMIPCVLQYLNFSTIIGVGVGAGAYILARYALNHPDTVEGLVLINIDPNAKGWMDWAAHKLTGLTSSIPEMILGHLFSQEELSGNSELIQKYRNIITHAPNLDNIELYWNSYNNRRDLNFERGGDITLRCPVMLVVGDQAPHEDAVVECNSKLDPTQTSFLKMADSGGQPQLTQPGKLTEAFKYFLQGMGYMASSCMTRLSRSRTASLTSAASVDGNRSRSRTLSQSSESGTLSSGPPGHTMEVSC
Assay: co-IP; lysates of 293T cells co-transfected with HA-NIK (WT or mutant) and Flag-NDRG2; immunoprecipitated with anti-Flag and with anti-HA antibodies, Western blot

Sequences of proteins named here, by UniProt entry; tags and fusion partners are left off. A change or cut given only in a name is not applied to a line headed by its entry.
UniProt Q99558, whole entry: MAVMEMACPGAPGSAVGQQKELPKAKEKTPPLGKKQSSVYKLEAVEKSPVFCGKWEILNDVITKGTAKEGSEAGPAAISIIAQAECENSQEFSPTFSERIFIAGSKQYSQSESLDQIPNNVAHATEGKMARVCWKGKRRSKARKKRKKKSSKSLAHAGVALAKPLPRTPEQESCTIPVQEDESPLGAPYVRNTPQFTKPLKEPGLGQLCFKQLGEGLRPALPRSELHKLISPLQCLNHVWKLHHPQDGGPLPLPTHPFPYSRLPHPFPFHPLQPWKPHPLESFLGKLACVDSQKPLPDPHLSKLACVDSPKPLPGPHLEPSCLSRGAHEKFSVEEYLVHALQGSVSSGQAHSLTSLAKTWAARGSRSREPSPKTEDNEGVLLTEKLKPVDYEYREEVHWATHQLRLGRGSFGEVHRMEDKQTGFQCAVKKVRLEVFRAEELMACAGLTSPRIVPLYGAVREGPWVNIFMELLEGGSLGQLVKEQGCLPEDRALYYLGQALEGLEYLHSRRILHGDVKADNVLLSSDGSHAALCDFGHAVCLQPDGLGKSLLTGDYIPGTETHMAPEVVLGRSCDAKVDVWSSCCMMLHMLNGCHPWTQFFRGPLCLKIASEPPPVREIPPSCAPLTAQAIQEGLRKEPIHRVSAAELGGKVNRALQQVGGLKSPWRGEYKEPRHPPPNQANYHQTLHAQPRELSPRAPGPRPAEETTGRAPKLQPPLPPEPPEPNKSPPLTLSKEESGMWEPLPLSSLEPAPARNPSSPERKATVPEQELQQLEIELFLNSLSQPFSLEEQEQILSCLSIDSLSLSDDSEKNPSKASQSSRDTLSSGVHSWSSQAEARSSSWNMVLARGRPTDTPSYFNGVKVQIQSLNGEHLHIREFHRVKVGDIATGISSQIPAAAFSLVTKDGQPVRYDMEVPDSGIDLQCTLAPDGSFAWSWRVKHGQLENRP

In the case of “Hemagglutinin (HA)-tagged NIK, wild type (from UniProt Q99558 1-947)”, the binding is reported as “binds”.

Reference: article PMC4534796
